The full ranking holds about 33,000 sequences; the median of “E-score (-0.5 to 0.5)” is about -0.015, and the highest 2% start at about 0.3. The list shows a part of the results.
These sequences were tested against T1, Abf1 (UniProt P14164) (assay: PBM E-score (8-mer binding enrichment) (E-score (-0.5 to 0.5)); higher = stronger / more preferred TF binding). Details: protein concentration: 200 nM; construct: GST-full length.
T1 sequence: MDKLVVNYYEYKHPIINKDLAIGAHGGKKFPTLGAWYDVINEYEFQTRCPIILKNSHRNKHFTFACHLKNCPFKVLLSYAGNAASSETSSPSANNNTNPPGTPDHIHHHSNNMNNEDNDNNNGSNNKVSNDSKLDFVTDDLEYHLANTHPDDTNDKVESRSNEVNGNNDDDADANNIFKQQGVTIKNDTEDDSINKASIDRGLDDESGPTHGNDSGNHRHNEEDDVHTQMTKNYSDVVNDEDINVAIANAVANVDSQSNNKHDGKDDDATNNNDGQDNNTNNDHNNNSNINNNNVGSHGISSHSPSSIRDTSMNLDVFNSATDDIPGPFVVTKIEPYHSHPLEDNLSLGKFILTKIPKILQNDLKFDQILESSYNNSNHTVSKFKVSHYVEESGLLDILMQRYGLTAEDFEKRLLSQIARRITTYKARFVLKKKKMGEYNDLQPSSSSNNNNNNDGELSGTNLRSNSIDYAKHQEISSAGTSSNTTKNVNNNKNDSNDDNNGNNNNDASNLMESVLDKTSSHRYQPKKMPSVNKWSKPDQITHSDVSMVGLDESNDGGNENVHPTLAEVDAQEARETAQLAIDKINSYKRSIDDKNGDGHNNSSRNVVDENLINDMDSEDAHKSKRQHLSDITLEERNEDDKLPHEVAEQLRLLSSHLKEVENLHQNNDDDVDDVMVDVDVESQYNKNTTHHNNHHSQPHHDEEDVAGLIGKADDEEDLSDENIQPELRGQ
In short: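 Masliner-normalised scans of fluorescent anti-GST signal were the basis for scoring. That signal came from GST-tagged yeast transcription factors applied at about 100-200 nM to double-stranded universal all-10-mer Agilent arrays on fresh or once-stripped slides. Each ungapped eight-base word, pooled with its reverse complement, received an E-score from the Universal PBM Analysis Suite.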

| Sequence | PBM E-score |
| --- | --- |
| ACAAAGCC | 0.093 |
| CGGTTTAG | -0.00596 |
| AGCAGAAT | 0.141 |
| TCCAGCAA | -0.0696 |
| AGTCGGAA | -0.166 |
| GGGTGACA | 0.257 |
| GACGGACC | 0.153 |
| AGGGAACT | -0.244 |
| GCTATGGA | -0.106 |
| ATGAATAA | 0.012 |
| CTCCTTCC | -0.389 |
| ACGCAGAT | 0.0745 |
| CAAGGGCG | -0.109 |
| ATCTGGGA | -0.0723 |
| CGCGCATC | -0.126 |
| ACGCTTGG | -0.0437 |
| CTGCTTGA | -0.184 |
| GAATCAGA | -0.122 |
| AGATAGAC | 0.00693 |
| ATATATGC | 0.0515 |
| CAAGATTC | -0.0169 |
| ACAGTATC | 0.0404 |
| AGCTAACT | -0.0886 |
| ATATCATC | 0.408 |
| CTAAACCA | -0.106 |

| Sequence | PBM E-score |
| --- | --- |
| ACTGCGCT | -0.222 |
| TCGTACCA | 0.322 |
| AATGTGAA | 0.0771 |
| ACGGATTA | 0.175 |
| CCAGTCTC | -0.222 |
| AACCTCAC | -0.00261 |
| CCACCACG | -0.0143 |
| GCCAAGCC | -0.163 |
| ATGTTCCA | 0.0963 |
| AGGCTTCA | -0.183 |
| ACTCTGGA | 0.0602 |
| CCTAGAAG | -0.0953 |
| CTGAATTC | -0.101 |
| AGATAGTG | 0.178 |
| GCTACCAA | -0.00544 |
| GCCGCGCC | -0.214 |
| ACTGGAGG | -0.167 |
| GCCTCGAA | 0.00063 |
| TAGGCCTA | 0.0048 |
| AAAGCCTG | -0.296 |
| GCGTTGCA | -0.132 |
| ATAGGGAC | -0.145 |
| GGCAAGAA | -0.0781 |
| GGGGCACA | -0.292 |
| GAGCAGGA | 0.1 |

| Sequence | PBM E-score |
| --- | --- |
| GATACGCA | 0.128 |
| ACCCTGAA | -0.11 |
| AGCAACGA | -0.00891 |
| ATTCATGC | -0.0459 |
| GTTCGCTA | 0.0655 |
| GATCAACC | 0.005 |
| GTTCTTTA | -0.00903 |
| TAAGAACA | 0.165 |
| ACACAGTG | 0.0503 |
| AAGGGTGG | -0.158 |
| ATTGAGGA | -0.0212 |
| ACGTATGC | 0.014 |
| TCTAATAA | 0.112 |
| ATATATAG | 0.142 |
| AGCCACCA | -0.14 |
| TCGTTTAA | 0.341 |
| AGAATTTA | 0.11 |
| CTGGGATA | -0.0232 |
| AATGATGA | 0.282 |
| AAGCATGA | 0.141 |
| CCAGGGGA | -0.302 |
| CTTACCGA | 0.00077 |
| TCGCGACA | 0.217 |
| TCGCTCAA | 0.0924 |
| GGCGATAC | 0.0593 |

Some values from above:
Under PBM E-score, CTGGGATA is entered as -0.0232
Under PBM E-score, AATGATGA is entered as 0.282
Under PBM E-score, GATACGCA is entered as 0.128
Under PBM E-score, AAGCATGA is entered as 0.141
Under PBM E-score, TCGCTCAA is entered as 0.0924
Under PBM E-score, TCGCGACA is entered as 0.217

Following part.

| Sequence | PBM E-score |
| --- | --- |
| TCGCAAAA | -0.0599 |
| CATTGGAA | 0.0279 |
| ACCATCAG | -0.222 |
| CCCTGAGC | -0.143 |
| ACTTCACC | 0.115 |
| AGCTTATA | -0.188 |
| ACTATAGG | 0.0727 |
| CAAAGTAG | -0.0106 |
| AATCTCCA | -0.0618 |
| CGGGGGAC | -0.162 |
| CCTAAGTC | -0.062 |
| AGTGAAAT | -0.0399 |
| ACGGTGGA | 0.145 |
| CCTGAACA | -0.0952 |
| GAGCCCAC | -0.0917 |
| AGGCAGAC | -0.143 |
| GACTTCTA | -0.0781 |
| ACTCGACT | -0.138 |
| GGGCGTAA | -0.136 |
| CTGGCCTC | -0.288 |
| CCTCTAAG | -0.0807 |
| GTGATTGA | 0.16 |
| CGCAAACC | -0.124 |
| GGTTGAAA | -0.00421 |
| AAGTGTAC | -0.183 |

| Sequence | PBM E-score |
| --- | --- |
| AACTTCAG | -0.105 |
| AGGAGTTC | -0.265 |
| ACCTGCTG | -0.00869 |
| AAGGAAGA | -0.195 |
| AAACCCGA | 0.0153 |
| AGGCATGC | -0.0181 |
| CCCATGTA | -0.00446 |
| CGCGAGAC | 0.154 |
| TATGCCCA | -0.111 |
| AAATGCAC | -0.0914 |
| ATCAAGTG | -0.0333 |
| TAGTGTAA | 0.157 |
| GGCCTCTA | -0.0781 |
| GAGATAGA | -0.0247 |
| TCCATGGA | 0.0226 |
| CCATATTA | 0.167 |
| CTACTGAA | -0.0599 |
| TACTTCAA | 0.0378 |
| CGGGCAAG | -0.003 |
| GTCGGGAA | 0.0638 |
| CCCCCGTA | -0.0535 |
| CCTACCTC | -0.177 |
| ATGACCCA | -0.00947 |
| CCCATAGC | -0.0876 |
| CTATATTA | 0.182 |

| Sequence | PBM E-score |
| --- | --- |
| CCCTGGAG | -0.15 |
| ATTGTAGG | -0.00207 |
| AGGGGACA | -0.0441 |
| CCAAATTC | 0.0534 |
| ATTACAGA | 0.0621 |
| AAGAAGTG | 0.133 |
| ATACGTAC | 0.165 |
| CGTTCATC | 0.138 |
| CATGTCTC | 0.0543 |
| CAAGGTAC | -0.0308 |
| AGAGTTGG | -0.102 |
| GGTGGCAA | -0.133 |
| CGTCTGAG | 0.221 |
| CAACGTAA | -0.0145 |
| ATAATTGC | -0.0145 |
| CGATAAGA | 0.0404 |
| CACTACTG | -0.109 |
| AATAACAA | 0.013 |
| GAAGGCCA | -0.164 |
| CCAAGCCA | -0.0609 |
| AAGAAAAG | -0.0972 |
| TCGTACAA | 0.402 |
| CCGGCTGA | 0.0032 |
| CACTACCG | 0.0572 |
| GGGGCGTA | -0.232 |

| Sequence | PBM E-score |
| --- | --- |
| CCAGCTCA | -0.0487 |
| ACTTTGTC | 0.217 |
| ACCATTCA | -0.0516 |
| ACAGCCGC | -0.223 |
| CAACGCGG | -0.0899 |
| ATTGACCG | -0.033 |
| CCCAGATA | -0.232 |
| ATCTTATA | 0.177 |
| GGTTCAAC | 0.0604 |
| AAGATAGT | 0.00969 |
| ACAAGCCG | 0.0151 |
| GAACACGA | 0.265 |
| ATAGAGTA | 0.0724 |
| TCGACACA | -0.0348 |
| GGTGCGAA | -0.0663 |
| CGCGCAAA | 0.0477 |
| AAGGGCCA | -0.172 |
| ATAACATA | 0.179 |
| ACTGCGTA | -0.0404 |
| CGCCCGAG | -0.203 |
| CTGGGTAA | -0.0825 |
| ACTCCTAA | -0.042 |

From the supplement of paper PMC3334620
